Earlier results in article PMC12990809.
Whether high values mean tight binding is not given here for every scale. For some of these results: Tags and fusion partners may be left off the protein sequences shown.

By UniProt entry, the sequences of proteins in these tests, tags left out. Chains listed by the source or under a name are the forms on record and can include a tag or linker.
UniProt Q9NFU0, other isoform, or with tags, fused parts or gaps: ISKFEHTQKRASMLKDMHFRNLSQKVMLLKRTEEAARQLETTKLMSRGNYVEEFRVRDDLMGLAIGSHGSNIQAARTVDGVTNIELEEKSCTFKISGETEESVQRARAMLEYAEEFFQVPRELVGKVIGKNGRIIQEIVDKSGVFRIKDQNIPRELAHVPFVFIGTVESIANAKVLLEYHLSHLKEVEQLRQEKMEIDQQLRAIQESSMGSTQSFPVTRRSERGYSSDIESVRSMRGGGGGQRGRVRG

Assays:
Assay in all cases: pull-down
ENOX1 (Homo sapiens) = target: T1, ENOX1 (Homo sapiens) (UniProt Q8TC92); settings: 20 nM protein, 1.5 uM RNA pool; 20 mM HEPES pH 7.8, 70 mM KCl, 10 mM NaCl, 10% glycerol, 2 mM DTT, 0.1 ug/uL BSA; 30 min, 4 C; purified recombinant protein; residues 94-254; protein details: N-terminal GST (kept); only the motif is given; cited from earlier work
T1 sequence: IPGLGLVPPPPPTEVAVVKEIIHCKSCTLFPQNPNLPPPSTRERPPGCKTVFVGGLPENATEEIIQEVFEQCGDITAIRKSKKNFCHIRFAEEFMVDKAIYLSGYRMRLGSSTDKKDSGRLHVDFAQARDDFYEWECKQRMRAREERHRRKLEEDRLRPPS

[1] = target: T2, pUf68 (Drosophila melanogaster) (UniProt Q8T6B9); settings: 20 nM protein, 1.5 uM RNA pool; 20 mM HEPES pH 7.8, 70 mM KCl, 10 mM NaCl, 10% glycerol, 2 mM DTT, 0.1 ug/uL BSA; 30 min, 4 C; purified recombinant protein; residues 82-637; protein details: N-terminal GST (kept); only the motif is given; cited from earlier work
T2 sequence: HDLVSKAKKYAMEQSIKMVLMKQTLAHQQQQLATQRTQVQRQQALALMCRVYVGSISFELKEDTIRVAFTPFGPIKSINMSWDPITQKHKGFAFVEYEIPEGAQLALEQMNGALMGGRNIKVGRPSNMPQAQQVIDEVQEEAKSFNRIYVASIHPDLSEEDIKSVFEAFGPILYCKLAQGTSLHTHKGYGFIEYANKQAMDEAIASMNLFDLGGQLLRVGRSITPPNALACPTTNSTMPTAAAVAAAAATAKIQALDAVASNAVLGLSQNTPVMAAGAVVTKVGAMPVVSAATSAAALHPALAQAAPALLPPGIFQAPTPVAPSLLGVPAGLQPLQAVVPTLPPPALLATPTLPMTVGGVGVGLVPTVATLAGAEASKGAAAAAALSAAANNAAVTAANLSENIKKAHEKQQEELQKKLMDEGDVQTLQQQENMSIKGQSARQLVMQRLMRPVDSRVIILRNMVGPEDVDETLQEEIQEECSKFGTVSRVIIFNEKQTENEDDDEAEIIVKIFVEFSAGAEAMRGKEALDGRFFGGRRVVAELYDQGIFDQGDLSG

ZNF638 (Homo sapiens) = target: T3, ZNF638 (Homo sapiens) (UniProt Q14966); settings: 20 nM protein, 1.5 uM RNA pool; 20 mM HEPES pH 7.8, 70 mM KCl, 10 mM NaCl, 10% glycerol, 2 mM DTT, 0.1 ug/uL BSA; 30 min, 4 C; purified recombinant protein; residues 628-1003; protein details: N-terminal GST (kept); only the motif is given; cited from earlier work
T3 sequence: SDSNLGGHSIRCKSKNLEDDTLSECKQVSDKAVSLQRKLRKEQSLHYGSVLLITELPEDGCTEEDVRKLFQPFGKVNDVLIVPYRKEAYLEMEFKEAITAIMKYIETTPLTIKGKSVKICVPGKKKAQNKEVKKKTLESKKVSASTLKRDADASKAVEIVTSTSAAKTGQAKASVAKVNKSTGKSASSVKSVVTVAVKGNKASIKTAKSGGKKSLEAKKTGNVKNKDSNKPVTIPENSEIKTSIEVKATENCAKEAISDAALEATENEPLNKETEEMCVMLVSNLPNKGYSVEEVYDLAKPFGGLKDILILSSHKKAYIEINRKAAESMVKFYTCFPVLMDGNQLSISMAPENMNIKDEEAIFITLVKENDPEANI

[2] = target: T4, CG7903 (Drosophila melanogaster) (UniProt Q8SYB8); settings: 20 nM protein, 1.5 uM RNA pool; 20 mM HEPES pH 7.8, 70 mM KCl, 10 mM NaCl, 10% glycerol, 2 mM DTT, 0.1 ug/uL BSA; 30 min, 4 C; purified recombinant protein; residues 1-118; protein details: N-terminal GST (kept); only the motif is given; cited from earlier work
T4 sequence: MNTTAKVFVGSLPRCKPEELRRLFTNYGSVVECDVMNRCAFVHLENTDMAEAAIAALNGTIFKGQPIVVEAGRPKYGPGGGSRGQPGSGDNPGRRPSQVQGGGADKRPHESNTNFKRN

[3] = target: T5, rbm42 (Xenopus tropicalis) (UniProt Q66KL9); settings: 20 nM protein, 1.5 uM RNA pool; 20 mM HEPES pH 7.8, 70 mM KCl, 10 mM NaCl, 10% glycerol, 2 mM DTT, 0.1 ug/uL BSA; 30 min, 4 C; purified recombinant protein; residues 245-392; protein details: N-terminal GST (kept); only the motif is given; cited from earlier work
T5 sequence: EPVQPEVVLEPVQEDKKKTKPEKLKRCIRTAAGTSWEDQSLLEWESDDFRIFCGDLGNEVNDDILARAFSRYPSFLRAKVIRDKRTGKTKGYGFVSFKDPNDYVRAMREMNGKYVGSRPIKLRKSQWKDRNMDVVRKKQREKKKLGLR

RBM6 (Homo sapiens) = target: T6, RBM6 (Homo sapiens) (UniProt P78332); settings: 20 nM protein, 1.5 uM RNA pool; 20 mM HEPES pH 7.8, 70 mM KCl, 10 mM NaCl, 10% glycerol, 2 mM DTT, 0.1 ug/uL BSA; 30 min, 4 C; purified recombinant protein; residues 408-774; protein details: N-terminal GST (kept); only the motif is given; cited from earlier work
T6 sequence: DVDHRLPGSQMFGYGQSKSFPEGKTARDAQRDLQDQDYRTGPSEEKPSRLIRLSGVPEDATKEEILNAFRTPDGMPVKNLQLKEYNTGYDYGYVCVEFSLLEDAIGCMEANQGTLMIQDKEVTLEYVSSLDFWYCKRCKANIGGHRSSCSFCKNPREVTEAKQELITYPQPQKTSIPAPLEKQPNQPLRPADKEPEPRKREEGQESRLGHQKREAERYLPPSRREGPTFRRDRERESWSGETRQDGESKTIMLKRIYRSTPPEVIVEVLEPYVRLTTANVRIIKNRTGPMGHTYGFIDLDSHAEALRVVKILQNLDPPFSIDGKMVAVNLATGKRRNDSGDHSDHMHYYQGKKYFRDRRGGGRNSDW

[4] = target: Fmr1 (Drosophila melanogaster) (UniProt Q9NFU0); settings: 20 nM protein, 1.5 uM RNA pool; 20 mM HEPES pH 7.8, 70 mM KCl, 10 mM NaCl, 10% glycerol, 2 mM DTT, 0.1 ug/uL BSA; 30 min, 4 C; purified recombinant protein; residues 173-420; protein details: N-terminal GST (kept); only the motif is given; cited from earlier work
FMR1 (Homo sapiens) = FMR1 (Homo sapiens) (UniProt Q06787); settings: 20 nM protein, 1.5 uM RNA pool; 20 mM HEPES pH 7.8, 70 mM KCl, 10 mM NaCl, 10% glycerol, 2 mM DTT, 0.1 ug/uL BSA; 30 min, 4 C; purified recombinant protein; residues 170-446; protein details: N-terminal GST (kept); only the motif is given; cited from earlier work
[5] = target: T7, ANIA_04546 (Aspergillus nidulans) (UniProt Q5B4I4); settings: 20 nM protein, 1.5 uM RNA pool; 20 mM HEPES pH 7.8, 70 mM KCl, 10 mM NaCl, 10% glycerol, 2 mM DTT, 0.1 ug/uL BSA; 30 min, 4 C; purified recombinant protein; residues 178-542; protein details: N-terminal GST (kept); only the motif is given; cited from earlier work
T7 sequence: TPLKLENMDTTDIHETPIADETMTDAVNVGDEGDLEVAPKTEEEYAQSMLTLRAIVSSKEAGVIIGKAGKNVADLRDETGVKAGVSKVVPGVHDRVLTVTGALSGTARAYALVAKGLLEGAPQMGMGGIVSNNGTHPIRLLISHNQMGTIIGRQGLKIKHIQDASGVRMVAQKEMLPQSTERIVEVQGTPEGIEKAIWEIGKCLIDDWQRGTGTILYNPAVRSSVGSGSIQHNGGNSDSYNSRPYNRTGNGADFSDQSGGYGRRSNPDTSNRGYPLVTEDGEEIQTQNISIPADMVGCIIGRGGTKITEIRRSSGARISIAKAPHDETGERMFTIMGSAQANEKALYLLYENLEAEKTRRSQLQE

[6] = target: T8, snRNP-U1-70K (Drosophila melanogaster) (UniProt P17133); settings: 20 nM protein, 1.5 uM RNA pool; 20 mM HEPES pH 7.8, 70 mM KCl, 10 mM NaCl, 10% glycerol, 2 mM DTT, 0.1 ug/uL BSA; 30 min, 4 C; purified recombinant protein; residues 54-224; protein details: N-terminal GST (kept); only the motif is given; cited from earlier work
T8 sequence: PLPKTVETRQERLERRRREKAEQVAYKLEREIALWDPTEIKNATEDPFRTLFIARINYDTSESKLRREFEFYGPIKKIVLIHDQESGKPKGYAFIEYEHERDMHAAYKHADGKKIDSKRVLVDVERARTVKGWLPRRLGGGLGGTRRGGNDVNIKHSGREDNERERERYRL

[7] = target: T9, Rox8 (Drosophila melanogaster) (UniProt B6IDM4); settings: 20 nM protein, 1.5 uM RNA pool; 20 mM HEPES pH 7.8, 70 mM KCl, 10 mM NaCl, 10% glycerol, 2 mM DTT, 0.1 ug/uL BSA; 30 min, 4 C; purified recombinant protein; residues 1-338; protein details: N-terminal GST (kept); only the motif is given; cited from earlier work
T9 sequence: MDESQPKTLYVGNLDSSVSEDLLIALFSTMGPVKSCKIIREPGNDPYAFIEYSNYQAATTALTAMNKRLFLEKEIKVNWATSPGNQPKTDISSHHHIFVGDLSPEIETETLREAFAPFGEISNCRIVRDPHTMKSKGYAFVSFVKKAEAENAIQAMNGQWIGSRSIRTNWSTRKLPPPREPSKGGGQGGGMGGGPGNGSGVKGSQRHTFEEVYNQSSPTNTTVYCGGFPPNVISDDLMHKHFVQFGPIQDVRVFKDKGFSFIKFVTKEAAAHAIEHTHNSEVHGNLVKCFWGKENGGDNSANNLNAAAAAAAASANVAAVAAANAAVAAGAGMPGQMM

FUS (Homo sapiens) = target: T10, FUS (Homo sapiens) (UniProt P35637); settings: 20 nM protein, 1.5 uM RNA pool; 20 mM HEPES pH 7.8, 70 mM KCl, 10 mM NaCl, 10% glycerol, 2 mM DTT, 0.1 ug/uL BSA; 30 min, 4 C; purified recombinant protein; residues 237-415; protein details: N-terminal GST (kept); only the motif is given; cited from earlier work
T10 sequence: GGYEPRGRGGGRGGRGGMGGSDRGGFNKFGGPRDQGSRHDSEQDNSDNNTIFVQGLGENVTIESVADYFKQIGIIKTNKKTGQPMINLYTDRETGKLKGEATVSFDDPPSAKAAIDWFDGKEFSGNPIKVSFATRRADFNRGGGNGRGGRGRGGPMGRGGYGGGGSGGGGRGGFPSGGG

[8] = target: T11, mod (Drosophila melanogaster) (UniProt P13469); settings: 20 nM protein, 1.5 uM RNA pool; 20 mM HEPES pH 7.8, 70 mM KCl, 10 mM NaCl, 10% glycerol, 2 mM DTT, 0.1 ug/uL BSA; 30 min, 4 C; purified recombinant protein; residues 127-533; protein details: N-terminal GST (kept); only the motif is given; cited from earlier work
T11 sequence: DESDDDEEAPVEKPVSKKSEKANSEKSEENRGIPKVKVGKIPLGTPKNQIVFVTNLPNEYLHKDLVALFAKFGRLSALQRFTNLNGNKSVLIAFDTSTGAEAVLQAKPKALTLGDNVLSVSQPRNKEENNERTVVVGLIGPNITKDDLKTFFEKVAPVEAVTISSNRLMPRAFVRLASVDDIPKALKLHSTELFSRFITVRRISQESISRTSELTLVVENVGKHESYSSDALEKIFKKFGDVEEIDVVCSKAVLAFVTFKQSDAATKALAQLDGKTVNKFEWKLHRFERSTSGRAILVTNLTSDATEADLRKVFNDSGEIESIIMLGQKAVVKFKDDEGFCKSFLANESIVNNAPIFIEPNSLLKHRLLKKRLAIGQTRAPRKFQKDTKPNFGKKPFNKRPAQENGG

Sequence: CACCC [RNAcompete motif RNCMPT00149]
- binding signal (z-score (mean of top ten 7-mers)) (ENOX1 (Homo sapiens)): 4.7

Sequence: UGAGUCG [RNAcompete motif RNCMPT00141]
- binding signal (z-score (mean of top ten 7-mers)) [1]: 3.76

Sequence: GUUCGU [RNAcompete motif RNCMPT00164]
- binding signal (z-score (mean of top ten 7-mers)) (ZNF638 (Homo sapiens)): 4.62

Sequence: CCACCC [RNAcompete motif RNCMPT00144]
- binding signal (z-score (mean of top ten 7-mers)) [2]: 5.73

Sequence: CAACUAC [RNAcompete motif RNCMPT00282]
- binding signal (z-score (mean of top ten 7-mers)) [3]: 5.65

Sequence: AUCCA [RNAcompete motif RNCMPT00170]
- binding signal (z-score (mean of top ten 7-mers)) (RBM6 (Homo sapiens)): 5.86

Sequence: GACGGAC [RNAcompete motif RNCMPT00015]
- binding signal (z-score (mean of top ten 7-mers)) [4]: 5.76

Sequence: GGACAGG [RNAcompete motif RNCMPT00016]
- binding signal (z-score (mean of top ten 7-mers)) (FMR1 (Homo sapiens)): 5.05

Sequence: ACCUAA [RNAcompete motif RNCMPT00265]
- binding signal (z-score (mean of top ten 7-mers)) [5]: 3.92

Sequence: AGACCC [RNAcompete motif RNCMPT00143]
- binding signal (z-score (mean of top ten 7-mers)) [6]: 5.9

Sequence: AGACCC [RNAcompete motif RNCMPT00148]
- binding signal (z-score (mean of top ten 7-mers)) [7]: 4.99

Sequence: CGCGCC [RNAcompete motif RNCMPT00018]
- binding signal (z-score (mean of top ten 7-mers)) (FUS (Homo sapiens)): 5.52

Sequence: GUGGAAA [RNAcompete motif RNCMPT00140]
- binding signal (z-score (mean of top ten 7-mers)) [8]: 5.16
